This experiment can be described thus: qHTS Assay to Find Inhibitors of Chronic Active B-Cell Receptor Signaling. The conditions noted are these: ABC-DLBCL IkBa-CBG/CBR reporter, luminescence ratio (green luciferase fused to IkBa over red control in TMD8 lymphoma cells), 4 h. Put shortly:
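TMD8 ABC-DLBCL cells carrying doxycycline-inducible green luciferase fused to IkappaBalpha plus unfused red luciferase were exposed to compounds (up to 46 uM) for 4 hrs at 37C. Activity came from the overlap-corrected green/red luminescence ratio.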
(In general: Quantitative high-throughput screening tests each substance at several concentrations.)

The mark [1] stands for this setting: measured here: CBR red luminescence, cell number.
The mark [2] stands for this setting: measured here: IkBa-CBG green luminescence.

Some of the results follow. The main result of the screen is listed elsewhere. These columns were measured beside it and carry no call. Most of these compounds were active or inconclusive in the main read-out, so they are no random draw. The note in brackets gives the kind of curve behind each potency; many fits are weak.

As a reminder, the AC50 is the midpoint of the concentration-response curve, whichever way the signal moves.

`CN1OC(COC(=O)c2ccccc2)CC1c1ccccc1` (stereo not given): the half-maximal activity concentration (AC50) under setting [1] was 3.98 µM [rising, partial curve, poor fit].

In the case of `CCC(Oc1ccccc1)C(=O)Nc1ncc([N+](=O)[O-])s1` (stereo not given), the AC50 under setting [1] was 0.141 µM [rising, full curve, poor fit].

`Cc1nc(C)c(-c2csc(NCc3ccco3)n2)s1`: under setting [1], the AC50 was 0.461 µM [rising, full curve, poor fit].

Consider `Cc1c(NC(=O)OCc2ccccc2)c(=O)n(-c2ccccc2)n1C`, for which the AC50 under setting [1] was 2.06 µM [falling, partial curve, poor fit].

Turning to `COc1ccc(C(CC(=O)c2ccc(C)cc2)Nc2ccc([N+](=O)[O-])cc2)cc1` (stereo not given), the AC50 under setting [1] was 10.3 µM [rising, partial curve, poor fit].

Consider `COC(=O)[C@@]12CCCN1[C@H](c1ccc(-c3ccc(Cl)c(Cl)c3)c(OC)c1)[C@H]1C(=O)N(C)C(=O)[C@H]12`, for which, under setting [1], the AC50 is 11.6 µM [falling, partial curve, poor fit].

As for `O=C(COC(=O)Cc1c(F)cccc1Cl)NC(=O)c1ccccc1`, under setting [1], the AC50 is 7.08 µM [rising, partial curve].

Take `CCOC(=O)COc1cc(N2C(=O)CSCC2=O)c(Cl)cc1Cl`: the AC50 under setting [1] is 20 µM [falling, partial curve, poor fit].

For the molecule `CCCC(=O)NC(c1ccc(OC)cc1)c1ccc2cccnc2c1O` (stereo not given), under setting [1], the AC50 was 5.01 µM [falling, full curve].

With `O=C(CSC(=S)N1CCCC1)N(Cc1nnc(-c2ccccc2Cl)o1)C1CC1`, the AC50 by setting is: under setting [1], 23.1 µM [rising, partial curve]; under setting [2], 18.4 µM [falling, partial curve, poor fit].

As for `COc1ccccc1CCNS(=O)(=O)c1cn(C)c(=O)n(C)c1=O`, the AC50 under setting [1] was 12.6 µM [falling, partial curve, poor fit].

`CCN(CC)C(=O)[C@H]1CC(CC(=O)NC/C=C(\C)CCC=C(C)C)C(=O)N2CCc3c([nH]c4ccc(OC)cc34)[C@]12C` (stereo not given in full): the AC50 under setting [1] is 23.1 µM [falling, single point].

Consider `Cc1cc(-c2sccc2C)nc(-n2cccc2)n1`, for which, under setting [1], the AC50 is 11.2 µM [rising, partial curve].

With `Cc1nnc2sc(SCc3cccc(Cl)c3)nn2c1=O`, the AC50 under setting [1] is 7.08 µM [falling, partial curve].

With `Cc1c(C(=O)N/N=C/c2ccc(-c3ccccc3[N+](=O)[O-])o2)sc(N)c1C#N`, under setting [1], the AC50 was 1.64 µM [falling, partial curve, poor fit].

Turning to `Cc1nnc(SCCn2c(N3CCN(C)CC3)nc3c2c(=O)[nH]c(=O)n3C)s1`, under setting [1], the AC50 is 17.8 µM [rising, partial curve, poor fit].

Regarding `CCOc1ccc(C(C)=O)cc1COC(=O)c1cc([N+](=O)[O-])ccc1N1CCOCC1`, the AC50 under setting [1] was 3.66 µM [rising, partial curve, poor fit].

`CC(C)n1cc(CN2CCCC(CO)(Cc3cccc(Cl)c3)C2)cn1` (stereo not given): under setting [1], the AC50 was 3.55 µM [falling, partial curve, poor fit].

As to `COc1ccc(-c2cn3ccccc3n2)cc1OC`, the AC50 under setting [1] is 14.1 µM [falling, single point].

On to `CCN(CC(=O)Nc1c(F)cccc1F)C(=O)CCN1C(=O)C2CCCCC2C1=O` (stereo not given), for which the AC50 under setting [1] was 32.6 µM [rising, partial curve, poor fit].

In the case of `Cc1ccc(NC(=O)[C@H](C)NC(=O)C2CCN(C(=O)[C@H](CC(C)C)NC(=O)OC(C)(C)C)CC2)cc1`, under setting [1], the AC50 is 15.8 µM [falling, single point].

On to `O=C(CSc1nc2ccccc2c(=O)n1-c1ccccc1Cl)NC1CCS(=O)(=O)C1` (stereo not given), for which the AC50 under setting [1] was 5.17 µM [rising, single point].

For `Cc1c(C(=O)Nc2nonc2-c2ccc(F)cc2)oc2ccc(F)cc12`, under setting [1], the AC50 was 5.62 µM [falling, partial curve].

As to `Cn1c(=O)c([N+](=O)[O-])c(NCc2ccc3c(c2)OCO3)c2ccccc21`, the AC50 under setting [1] was 10 µM [falling, partial curve, poor fit].

For `CSC1=NSC2=NC(=O)/C(=C\c3coc4ccccc4c3=O)C(=N)N12`, the AC50 under setting [1] was 0.231 µM [rising, full curve, poor fit].

Take `Cc1nc2scc(-c3cccs3)c2c(=O)n1CC(=O)O`: the AC50 under setting [1] is 20.6 µM [falling, partial curve].

For `Cc1ccc(/C=C2\SC(=S)N(CCCC(=O)Nc3ccccn3)C2=O)cc1`, under setting [1], the AC50 was 0.447 µM [falling, full curve].

Consider `O=C(Nc1ccccc1C(=O)NCc1ccco1)Nc1cccc2ccccc12`, for which, under setting [1], the AC50 is 0.631 µM [falling, full curve, poor fit].

In the case of `Cn1c2c(c3ccccc31)CCSC2=O`, the AC50 under setting [1] is 12.6 µM [rising, partial curve].

Consider `Cc1ccc(N2CCN(C3=NC(=O)/C(=C\c4cccs4)S3)CC2)cc1`, for which the AC50 under setting [1] was 0.0206 µM [rising, full curve, poor fit].

Regarding `COc1ccc(Cl)cc1NC(=O)CSc1nc(=O)n(CCN(C)C)c2c1CCCC2`, the AC50 under setting [1] is 29.1 µM [falling, partial curve, poor fit].

Turning to `COc1cc([N+](=O)[O-])cc(/C=N/NC(=O)CSc2nnc(-c3ccccc3)n2C)c1O`, the AC50 under setting [1] was 8.91 µM [rising, partial curve, poor fit].

`Cn1c(C(=O)NC2CCCCC2)cc2c(=O)n(C)c3ccccc3c21`: the AC50 under setting [1] was 29.1 µM [falling, single point].

On to `CC1=NOC(=O)/C1=C\c1ccc(-c2ccccc2Br)o1`, for which, under setting [1], the AC50 is 35.5 µM [rising, single point].

Regarding `CCCN(CCC)C(=O)CSc1nc2ccccc2c(=O)n1Cc1ccco1`, the AC50 under setting [1] was 6.31 µM [falling, full curve].

As for `O=[N+]([O-])c1cc(S(=O)(=O)CCCN2CCOCC2)ccc1F`, the AC50 under setting [1] is 2.24 µM [rising, full curve].

For the molecule `O=C(Nc1ccccc1C(=O)N/N=C/c1ccc(O)cc1)c1ccccc1`, the concentration at half-maximal activity (AC50) is, setting by setting: under setting [1], 1.26 µM [falling, full curve]; under setting [2], 2 µM [rising, partial curve, poor fit].

In the case of `Cc1cccc(Nc2nc(N)c(C#N)c(CC#N)c2C#N)c1`, the AC50 under setting [1] is 3.66 µM [falling, partial curve, poor fit].

`Cc1cc(C)n(CC(O)CN2c3ccccc3Sc3ccccc32)n1` (stereo not given): the AC50 under setting [1] is 35.5 µM [falling, single point].

In the case of `Cc1ccc(F)c(N=Cc2c(O)c3ccccc3oc2=O)c1`, the AC50 under setting [1] was 2.51 µM [falling, full curve].

As for `O=C(NCCN1CCCC1)c1ccc(Cn2c(=S)[nH]c3ccc(Br)cc3c2=O)cc1`, the AC50 under setting [1] was 12.6 µM [falling, partial curve, poor fit].

Turning to `O=C(N/N=C/c1cccnc1)c1cccc(NC(=O)c2cccc(Br)c2)c1`, the AC50 under setting [1] was 35.5 µM [falling, single point].

As for `CCOC(=O)N1CCN(C(=O)c2nn(-c3cc(OC)cc(OC)c3)c(=O)c3ccccc23)CC1`, the AC50 under setting [1] was 20.6 µM [rising, partial curve, poor fit].

For `CC(=O)Nc1cccc(Oc2ncnc3scc(-c4ccc(C)cc4)c23)c1`, the half-maximal activity concentration (AC50) under setting [1] was 18.4 µM [falling, single point].

For `CCN(Cc1cnn(C)c1)C(=O)C1CCC(=O)N(CCc2ccc(OC)cc2)C1` (stereo not given), the AC50 under setting [1] is 3.98 µM [falling, full curve, poor fit].

With `O=C(NC(=S)NNC(=O)c1ccccc1O)c1ccco1`, the AC50 under setting [1] is 7.31 µM [falling, partial curve].

As to `CSc1nc(-c2ccccc2)nc(N)c1C(C)=O`, the AC50 under setting [1] is 2.31 µM [falling, full curve, poor fit].

For the molecule `CC(C)C(NC(=O)c1ccco1)C(=O)OCC(=O)Nc1ccc(C(N)=O)cc1` (stereo not given), under setting [1], the AC50 is 20 µM [rising, single point].

In the case of `CCC(=O)Nc1c(C)n[nH]c1C`, the AC50 under setting [1] was 5.17 µM [falling, single point].

On to `CSc1nc2ccc(NC(=O)COc3ccccc3F)cc2s1`, for which the AC50 under setting [1] is 0.366 µM [rising, full curve].

As to `N#Cc1cccc(-c2cn(S(=O)(=O)c3ccc(Cl)cc3)nc2N)c1`, the AC50 under setting [1] is 5.8 µM [falling, single point].

With `O=C(CN1C(=O)/C(=C/c2ccccc2Cl)SC1=S)NC1C=CS(=O)(=O)C1` (stereo not given), the AC50 under setting [1] was 20 µM [falling, single point].

As to `COCc1cc(C)nc(SCC(=O)Nc2cccc(C)c2C)c1C#N`, the AC50 under setting [1] is 0.517 µM [rising, full curve].

Consider `O=C(Nc1cccc(C(F)(F)F)c1)C1CCCN(S(=O)(=O)c2cnc[nH]2)C1` (stereo not given), for which, under setting [1], the AC50 was 35.5 µM [falling, single point].

On to `Cn1c(N)c(C(=O)COC(=O)CCOc2ccc(C(C)(C)C)cc2)c(=O)n(C)c1=O`, for which the AC50 under setting [1] is 25.1 µM [falling, single point].

Consider `COc1cccc(/C=N/NC(=O)c2cnn(-c3ccccc3)c2N)c1`, for which the AC50 under setting [1] is 10 µM [falling, partial curve].

`COc1ccccc1/C=N\N=C(\N)c1ccccn1`: under setting [1], the AC50 is 0.164 µM [falling, full curve].

For the molecule `CCOc1ccc(C(=O)N/N=C/c2cccc3cccnc23)cc1`, under setting [1], the AC50 was 12.6 µM [falling, partial curve, poor fit].

As to `C[C@H](NC(=O)C1(c2ccccc2)CCN(C(=O)[C@H]2CSCN2C(=O)OC(C)(C)C)CC1)C(=O)O`, the AC50 under setting [1] was 3.16 µM [falling, single point].

As to `COc1cccc(-c2coc3c(C)c4oc(=O)c(CC(=O)O)c(C)c4cc23)c1`, the AC50 under setting [1] is 0.708 µM [rising, partial curve, poor fit].

Take `O=C(CC1OC(=O)c2ccccc21)Nc1cc(Cl)ccc1N1CCCC1` (stereo not given): the AC50 under setting [1] was 3.26 µM [falling, partial curve].

With `C=CCn1c(NS(=O)(=O)c2ccccc2)c(S(=O)(=O)c2ccc(C)cc2)c2nc3ccccc3nc21`, the AC50 is 7.31 µM [rising, partial curve] under setting [1] and 5.8 µM [falling, full curve] under setting [2].

Values taken from PubChem BioAssay AID493014 (National Center for Advancing Translational Sciences (NCATS), 2011).
